For 64 compounds, AC50 results are on record in PubChem BioAssay AID493014 (National Center for Advancing Translational Sciences (NCATS), 2011).

This is one part of the list. Shown are side measurements of this screen, not its main read-out; they come without a call. Most of these compounds were active or inconclusive in the main read-out, so they are no random draw. The note in brackets gives the kind of curve behind each potency; many fits are weak.

The nature of the test: qHTS Assay to Find Inhibitors of Chronic Active B-Cell Receptor Signaling. To be noted: ABC-DLBCL IkBa-CBG/CBR reporter, luminescence ratio (green luciferase fused to IkBa over red control in TMD8 lymphoma cells), 4 h. The method in brief:
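TMD8 ABC-DLBCL cells carrying doxycycline-inducible green luciferase fused to IkappaBalpha plus unfused red luciferase were exposed to compounds (up to 46 uM) for 4 hrs at 37C. Activity came from the overlap-corrected green/red luminescence ratio.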
Background: qHTS replaces the single test concentration by a dilution series.

The mark [1] stands for this setting: measured here: CBR red luminescence, cell number.
Setting [2] is: measured here: IkBa-CBG green luminescence.

For the compound `C=CCNC(=O)c1ccc(OC)cc1`, the AC50 under setting [1] was 0.447 µM [rising, full curve, poor fit].
The same measure, in the same setting: the figure for `Cc1ccc(NC(=O)CCC(=O)c2cccs2)c(Br)c1` is 14.1 µM [rising, single point]; for `O=C(O)C1CC(=O)N(CCc2ccccc2)C1` (stereo not drawn) it is 16.4 µM [rising, single point]; for `CCCn1nnc(NC(=O)c2ccc(Br)o2)n1` it is 29.1 µM [rising, single point].
Regarding `CCc1ccc(NC(=O)c2cc(-c3ccc(F)cc3)on2)cc1`, the AC50 under setting [1] was 3.55 µM [falling, partial curve, poor fit].
The same measure, in the same setting: the figure for `CC1=CCC(C(=O)O)(C(=O)N/N=C/c2cccs2)C(c2ccc(Cl)cc2)C1` (stereo not drawn) is 16.4 µM [rising, single point].
For the compound `O=C(OCn1ncc(Cl)c(Cl)c1=O)c1ccccc1Cl`, the AC50 was 11.2 µM [falling, partial curve] under setting [1] and 10 µM [rising, partial curve, poor fit] under setting [2].
Consider `CC(C)(CCl)C(=O)Nc1ccc(OC(F)(F)F)cc1`, for which the AC50 under setting [1] is 15.8 µM [rising, partial curve, poor fit].
Consider `Cc1nc(-c2ccc(C)c(S(=O)(=O)N3CCC(C(=O)Nc4ccc(Cl)cc4)CC3)c2)no1`, for which, under setting [1], the AC50 was 35.5 µM [falling, single point].
On the same count and under the same terms, the figure for `O=C1CSC2(N1)C1CC3CC(C1)CC2C3` (stereo not drawn) is 1 µM [rising, partial curve, poor fit]; for `CCCCCNC(=O)c1ccc2c(c1)nc(C)n2-c1cccc(C)c1` it is 0.562 µM [rising, partial curve, poor fit]; for `COc1ccccc1-n1cnnc1SCC(=O)N1CCOCC1` it is 2.24 µM [falling, full curve].
Regarding `CCOc1ccc(CN2CCNC(=O)C2CC(=O)NCc2ccccn2)cc1` (stereo not drawn), the AC50 under setting [1] is 11.2 µM [rising, single point].
For the compound `Clc1ccccc1CN1CCN(/N=C/C=C\c2ccco2)CC1`, the AC50 under setting [1] is 12.6 µM [rising, partial curve, poor fit].
As to `COc1cc2c(cc1OC)C(c1cc(Br)c(OC)c(OC)c1)CC(=O)N2` (stereo not drawn), the half-maximal activity concentration (AC50) under setting [2] is 11.2 µM [falling, partial curve, poor fit].
`CCC(=O)Nc1cccc(-c2cc3ccccc3oc2=O)c1`: the AC50 under setting [1] is 22.4 µM [falling, single point].
As for `CC(C)OC(=O)c1cc2c(=O)[nH]c(C(Cl)(Cl)Cl)nc2o1`, the AC50 under setting [1] is 10 µM [falling, partial curve].
For the compound `Cc1c(/C=N/NC(=O)CNc2ccccc2)c2ccccn2c1C(=O)c1ccccc1`, the AC50 under setting [1] is 2.91 µM [falling, full curve].
The same measure, in the same setting: the figure for `O=C1/C(=C/c2ccccc2F)SC(=S)N1CC(=O)N1CCCCC1c1cccnc1` (stereo not drawn) is 22.4 µM [falling, single point].
In the case of `CCn1c(C)nc2cc(C(=O)NNS(=O)(=O)c3ccccc3F)ccc21`, under setting [1], the AC50 is 1 µM [falling, partial curve, poor fit].
Turning to `O=C(N/N=C/c1ccc([N+](=O)[O-])o1)c1cc(-c2ccc(-c3ccccc3)cc2)nc2ccccc12`, the AC50 by setting is: under setting [1], 5.62 µM [rising, full curve]; under setting [2], 5.62 µM [falling, full curve].
With `Cc1[nH]c2ccc(C(=O)NC3CCC(C)CC3)cc2c1C` (stereo not drawn), the AC50 under setting [1] was 11.2 µM [falling, partial curve, poor fit].
Still for that read-out and setting: the figure for `Cc1ccc(C)c(CN2C(=O)c3ccccc3S(=O)c3ccc(C(=O)N4CCN(c5ccccn5)CC4)cc32)c1` (stereo not drawn) is 22.4 µM [falling, single point]; for `COc1ccc(Cn2c(=O)sc3ccccc32)cc1OC` it is 16.4 µM [falling, single point]; for `Cc1nn(CC(=O)Nc2ccc(Cl)cc2Cl)c(=O)c2ccccc12` it is 11.2 µM [rising, partial curve].
For the compound `CCN(CC)C(=O)c1cc(C(C)(C)C)c(O)c(C(C)(C)C)c1`, the AC50 under setting [1] was 14.6 µM [falling, partial curve, poor fit].
Same read-out and setting: with `Cc1ccc(Nc2cc(C)c3ccc(O)cc3n2)cc1C` the figure was 17.8 µM [rising, partial curve, poor fit]; with `COc1ccc(NC(=O)CSc2nnc(-c3ccoc3C)n2CCc2ccccc2)cc1`, 4.11 µM [falling, full curve, poor fit].
Same read-out and setting: with `CCc1ccc(NC(=O)c2ccccc2Br)cc1` the figure was 8.91 µM [falling, partial curve].
With `O=C1NC(=O)C(=C2CCCCCC2)S1`, the AC50 was 11.6 µM [rising, partial curve] under setting [1] and 9.2 µM [falling, partial curve] under setting [2].
`COc1ccc(CCNc2ncnc3c2c(C)c(C)n3CCO)cc1OC`: under setting [1], the AC50 was 35.5 µM [rising, single point].
The same measure, in the same setting: with `COc1cc(/C=C2\N=C(c3c(-c4ccccc4)noc3C)OC2=O)ccc1OC(C)=O` the figure was 25.1 µM [falling, single point]; with `Cc1ccc(NC(=O)NCCCCc2ccccc2)cc1`, 0.1 µM [rising, full curve, poor fit]; with `COc1ccccc1NC(=O)COc1ccc2c(c1)OCO2`, 7.08 µM [falling, full curve, poor fit].
Regarding `COc1cccc(NC(=O)N2CCN(c3nc(-c4cccc(OC)c4)cs3)CC2)c1`, the AC50 under setting [1] was 35.5 µM [falling, single point].
As for `CCOC(=O)CCCNC(=O)CN1CCC(c2nc3ccccc3s2)CC1`, the AC50 under setting [1] was 8.91 µM [falling, partial curve, poor fit].
`O=C(Nc1ccccc1N1CCCCC1)C1CCN(S(=O)(=O)c2cccc(C(F)(F)F)c2)CC1`: the AC50 under setting [1] was 25.9 µM [falling, partial curve, poor fit].
On to `CC(C)c1nc2c(c(=O)c3ccccc3n2C)c(=O)n1CCc1ccccc1`, for which the AC50 under setting [1] was 2.51 µM [falling, full curve, poor fit].
On the same count and under the same terms, the figure for `N/C(Cc1ccc(Cl)c(Cl)c1)=N\OC(=O)c1ccc(Br)o1` is 6.31 µM [rising, partial curve, poor fit]; for `O=C(NN=C1C2CC3CC(C2)CC1C3)c1cc(Cl)ccc1O` it is 1 µM [falling, full curve].
Still for that read-out and setting: with `CCOc1ccc(-c2cc(N3C(=O)Nc4ccccc4N3O)on2)cc1` the figure was 10.3 µM [falling, partial curve, poor fit]; with `O=C(CNC(=O)c1cccnc1)N/N=C/c1ccc(O)cc1O`, 5.01 µM [falling, full curve, poor fit].
Consider `Cc1nn(CC(=O)Nc2ccc3c(c2)nc(CCN2CCCCC2)n3C)c(=O)c2ccccc12`, for which the AC50 under setting [1] is 32.6 µM [falling, single point].
On to `Oc1ccc(CNCc2ccc3c(c2)OCO3)c2cccnc12`, for which the AC50 under setting [2] is 8.2 µM [falling, partial curve, poor fit].
With `O=C(Oc1oc(-c2ccco2)nc1C=Nc1ccccc1)c1ccoc1`, the AC50 under setting [1] was 12.6 µM [falling, partial curve, poor fit].
On to `O=c1[nH][nH]c(-c2ccccc2)c1C=Nc1ccccc1`, for which the AC50 under setting [1] was 14.1 µM [falling, single point].
Still for that read-out and setting: with `Cc1ccc(C)c(-c2csc(NC(=O)c3c(C)noc3C)n2)c1` the figure was 14.6 µM [falling, partial curve, poor fit]; with `C=CCN1C(c2ccc(OCC)cc2)=CS/C1=C(\C#N)c1nnc2n1CCCCC2`, 2.06 µM [falling, partial curve, poor fit].
For the compound `Cc1cc(NC(=O)Cn2nnc3sc4c(c3c2=O)CCC(C(C)(C)C)C4)no1` (stereo not drawn), under setting [1], the AC50 was 35.5 µM [rising, single point].
Still for that read-out and setting: with `Cc1ccn2c(c1)nc(=S)n2C(=O)c1ccccc1` the figure was 3.66 µM [falling, full curve].
The same measure, in the same setting: with `CC(C)n1c(C(=O)OCC(=O)NCc2ccc3c(c2)OCO3)cc2occc21` the figure was 20 µM [rising, single point]; with `CCN1CCN(c2cc(C)c3cc(NC(=O)c4cncc(Br)c4)ccc3n2)CC1`, 2.24 µM [falling, partial curve].
Same read-out and setting: the figure for `O=C1COc2ccc(C(=O)COc3ccc(Cl)cc3Br)cc2N1` is 0.259 µM [rising, full curve, poor fit]; for `CC(CC(=O)O)Nc1ccccc1O` (stereo not drawn) it is 15.8 µM [falling, single point].
Take `Nc1cnc(Nc2ccc(Br)cc2)nc1N`: the half-maximal activity concentration (AC50) is 15.8 µM [falling, single point] under setting [1] and 15.8 µM [rising, partial curve, poor fit] under setting [2].
As to `COc1cccc(NC(=O)CN2C(=O)C3(OCCCO3)c3ccccc32)c1`, the AC50 under setting [1] is 15.8 µM [falling, partial curve, poor fit].
As to `O=C(CSc1nccc(=O)[nH]1)Nc1ccc2c(c1)OCCO2`, under setting [1], the AC50 was 35.5 µM [falling, single point].
Same read-out and setting: with `COc1cccc2cc(C(N)=O)/c(=N\NC(=O)c3ccccc3)oc12` the figure was 3.55 µM [falling, full curve, poor fit].
On the same count and under the same terms, with `Nc1ccc(Cc2nc3cc4ccccc4cc3[nH]2)cc1` the figure was 0.631 µM [falling, full curve, poor fit].
The same measure, in the same setting: the figure for `Cc1nc(CSc2nnc(Nc3cccc(C)c3C)s2)cs1` is 18.4 µM [rising, single point]; for `CCOC(=O)c1ccc(N2C(=O)C(CC(N)=O)N(NC(=O)c3cccc(F)c3)C2=S)cc1` (stereo not drawn) it is 1 µM [falling, full curve]; for `CC(NC(=O)c1ccccc1NC(=O)c1ccco1)c1ccccc1` (stereo not drawn) it is 29.1 µM [rising, single point].
`O=C(NCC(=O)N1CCN(S(=O)(=O)c2ccc3c(c2)OCCO3)CC1)c1ccccc1F`: under setting [1], the concentration at half-maximal activity (AC50) was 29.1 µM [rising, partial curve, poor fit].
On the same count and under the same terms, the figure for `O=C(Nc1nc2ccccc2[nH]1)C1CCN(C(=O)c2ccc(F)cc2)CC1` is 7.31 µM [falling, partial curve].

By AC50 is commonly meant the midpoint of the concentration-response curve, whichever way the signal moves.
